The nature of the assay: qHTS Assay for Lipid Storage Modulators in Drosophila S3 Cells.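 On cell number change: cells counted by Cell Tracker Red CMTPX staining in the red channel.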 The note with it: BODIPY lipid droplet fluorescence, 18-24 h; for cell number change: measured here: cell count max response, cells fed with added oleic acid. In short, it runs like this: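 Laser-scanning cytometry quantifies lipid droplet accumulation (500–530 nm total intensity; droplet/cell object ratio) in oleic acid-fed (400 uM added) Drosophila S3 cells treated with a concentration series. 20 uM Triacsin C defined 100% inhibition.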
A general note: Quantitative high-throughput screening tests each substance at several concentrations.

Where [1] appears, read: measured here: cell number channel AC50, cells fed with added oleic acid.
Where [2] appears, read: measured here: lipid fluorescence (Fed channel) AC50, cells fed with added oleic acid.

The structures appear in SMILES notation. This is one part of the list. These are further read-outs of the screen, such as a control signal, another cell line or another target. No call is given for them. Compounds called inactive in the main read-out are mostly missing here. Potencies come from curve fits of mixed quality, noted in brackets.

For the compound `COc1cc(/C=C(/C#N)c2ccc(F)cc2)ccc1Oc1ccc([N+](=O)[O-])cn1`, the cell number change is -3.65%.

Regarding `CCCCc1ccc(NC(=O)CSC2=NN3CCCC(=O)N=C3S2)cc1`, the cell number change was -35.2%. Also, the AC50 under setting [1] is 14.6 µM [falling, single point].

Consider `Cc1cc(N2CCCC2)ccc1/C=C1/C(=O)N(C)C(=S)N1C`, for which the cell number change is -52.8%. Also, the concentration at half-maximal activity (AC50) under setting [1] was 6.51 µM [falling, single point].

For `CN1Cc2ccccc2N(CC(=O)NCc2ccccc2)C1=O`, the cell number change is -31.7%.

For the compound `O=C(NC1CCCCC1)c1c(O)nc2sccn2c1=O`, the cell number change was -50%. In addition, under setting [1], the AC50 is 0.326 µM [falling, partial curve, poor fit]. The half-maximal activity concentration (AC50) under setting [2] was 3.66 µM [rising, full curve].

Consider `CC1C/C(=C/c2ccncc2)C(=O)/C(=C/c2ccncc2)C1` (centres undefined), for which the cell number change is -32.3%. Under setting [1], the AC50 is 23.1 µM [falling, single point]. Besides, the AC50 under setting [2] is 20.6 µM [falling, single point].

On to `Cc1cccc2cc(COC(=O)COc3ccccc3)c(=O)[nH]c12`, for which the cell number change is -17.4%.

Consider `CCOC(=O)CCC(=O)N1CCOCCOCCOCC1`, for which the cell number change was -3.23%. In addition, under setting [1], the AC50 is 4.61 µM [falling, single point].

Turning to `CC(=O)c1ccc(NC(=O)CCNS(=O)(=O)c2ccccc2F)cc1`, the cell number change was found to be 17.1%.

`N#Cc1nc(Cc2cccc3ccccc23)oc1N1CCCCC1`: the cell number change is -38.6%. Further, the AC50 under setting [1] is 13 µM [falling, partial curve]. Moreover, the AC50 under setting [2] was 0.082 µM [falling, full curve, poor fit].

Turning to `COc1ccc(NC(=O)CN2CCN(CC(=O)Nc3ccc(OC)cc3)CC2)cc1`, the cell number change was -5.03%. Further, under setting [2], the AC50 was 32.6 µM [rising, partial curve, poor fit].

On to `COCCNC(=O)c1cc(-c2ccccc2OC)on1`, for which the cell number change is -4.46%. The AC50 under setting [2] was 0.00517 µM [falling, full curve, poor fit].

With `COC(=O)Cc1[nH]n(-c2nc3ccccc3s2)c(=O)c1C(C)=O`, the cell number change was 3.06%. Also, the AC50 under setting [2] is 0.00731 µM [falling, full curve, poor fit].

As to `COCCN1CC(CNC(=O)c2cc(COc3ccccc3SC)on2)CC1=O` (centres undefined), the cell number change is 0.694%. Under setting [1], the AC50 was 2.82 µM [falling, partial curve, poor fit].

Regarding `CC(C)(C)C1CCC(N2CCN(c3ccccc3)CC2)CC1` (centres undefined), the cell number change was -19.4%. Also, the AC50 under setting [2] is 29.1 µM [falling, single point].

In the case of `COc1ccc(C(CNC(=O)c2cccc(S(=O)(=O)Nc3ccc(C)cc3)c2)N2CCCCC2)cc1` (centres undefined), the cell number change was found to be 15%.

Consider `CN1CCN(CC(O)COc2ccc(Cl)cc2)CC1` (centres undefined), for which the cell number change is 5.34%. Also, under setting [2], the AC50 is 2.31 µM [falling, single point].

Regarding `O=S(=O)(c1cccc(-c2nnc(SCc3ccc(Cl)cc3)o2)c1)N1CCCCC1`, the half-maximal activity concentration (AC50) was 6.51 µM [rising, single point] under setting [1] and 6.51 µM [rising, single point] under setting [2].

In the case of `O=S(=O)(Nc1ccc(N=Nc2ccc(O)c3ccccc23)cc1)c1ccccc1`, the cell number change was -38.6%. For the same compound, the concentration at half-maximal activity (AC50) under setting [1] is 23.1 µM [falling, single point]. In addition, the half-maximal activity concentration (AC50) under setting [2] is 18.4 µM [falling, partial curve].

On to `Cc1ccnc(NC(=O)CCC(=O)N(CC(=O)NC2CCCCC2)CC2CCCO2)c1` (centres undefined), for which the cell number change is 70.2%. The half-maximal activity concentration (AC50) under setting [1] was 6.51 µM [rising, partial curve]. The concentration at half-maximal activity (AC50) under setting [2] is 8.2 µM [rising, partial curve].

In the case of `O=C(COc1cccc2ccccc12)N/N=C/c1ccncc1`, the cell number change was 11.4%.

Take `CCCc1cc(=O)oc2c3c(cc(OCC(=O)NCc4ccccn4)c12)OC(C)(C)CC3`: the cell number change is -2.91%. Under setting [2], the half-maximal activity concentration (AC50) was 9.2 µM [falling, partial curve, poor fit].

As to `Cc1ccc(S(=O)(=O)Nc2cc(=O)[nH]c3c2CCC3)cc1`, the cell number change was 24.2%.

Regarding `Cc1c(NC(=S)N/N=C\c2ccccc2O)c(=O)n(-c2ccccc2)n1C`, the cell number change is 20%. In addition, the concentration at half-maximal activity (AC50) under setting [1] is 0.0291 µM [rising, full curve, poor fit].

Turning to `C=CCn1c(COc2ccc(Cl)cc2)nnc1SCC(=O)N1CC(=O)Nc2ccccc21`, the cell number change came to 24.6%. For the same compound, under setting [1], the AC50 was 0.291 µM [rising, partial curve, poor fit]. Moreover, the AC50 under setting [2] is 29.1 µM [rising, partial curve, poor fit].

With `Cc1ccc(C)c(S(=O)(=O)N2CCN(C(=O)CCCc3c[nH]c4ccccc34)CC2)c1`, the cell number change is -55.8%. Besides, the concentration at half-maximal activity (AC50) under setting [1] was 20.6 µM [falling, partial curve, poor fit]. Also, the AC50 under setting [2] was 5.17 µM [falling, single point].

As to `Cn1[nH]c(CSc2ccc(Cl)cc2)cc1=O`, the cell number change is -32.6%.

Take `O=[N+]([O-])c1cc(C(F)(F)F)ccc1NCCCCNS(=O)(=O)c1ccc2ccccc2c1`: the cell number change was -25.2%. Under setting [2], the concentration at half-maximal activity (AC50) was 0.184 µM [falling, full curve].

Turning to `CCOc1cc(C(C(=O)NCC2CCCO2)N(C(=O)Cn2nnc3ccccc32)c2ccc(C(C)=O)cc2)ccc1O` (centres undefined), the cell number change was -13.5%. Moreover, the AC50 under setting [1] was 0.116 µM [falling, full curve, poor fit].

`Cc1noc(C)c1S(=O)(=O)N1CCC(C(=O)NCCC2=CCCCC2)CC1`: the cell number change is -15.3%. For the same compound, the AC50 under setting [1] is 2.31 µM [falling, partial curve]. Under setting [2], the half-maximal activity concentration (AC50) is 18.4 µM [falling, partial curve].

For `C[C@H]1CCC(=O)N(CCSc2ccc(Br)cc2)CC1`, the cell number change is -7.55%. The half-maximal activity concentration (AC50) under setting [2] is 4.61 µM [falling, single point].

In the case of `Cc1ccc(S(=O)(=O)N(Cc2cccc(Cl)c2)C(=O)N2CCN(C)CC2)cc1`, the cell number change stood at 11.9%. The concentration at half-maximal activity (AC50) under setting [1] is 0.082 µM [falling, full curve]. Moreover, the half-maximal activity concentration (AC50) under setting [2] was 0.13 µM [falling, full curve].

As to `NC(=O)COc1c(-c2ccc(Br)o2)oc2ccccc2c1=O`, the cell number change is -16.5%. Besides, the AC50 under setting [2] was 16.4 µM [falling, partial curve, poor fit].

With `CC(c1ccco1)N(C(=O)c1ccccc1NS(=O)(=O)c1cc([N+](=O)[O-])ccc1Cl)c1ccccn1` (centres undefined), the cell number change worked out at 11.1%.

Turning to `COc1ccccc1NS(=O)(=O)c1cc(-c2cnc(C3CC3)o2)ccc1C`, the cell number change is -19.2%. In addition, the AC50 under setting [2] is 0.82 µM [falling, full curve].

As to `Cn1cnnc1SCC(=O)c1ccc2c(c1)CCCC2`, the cell number change is -4.37%. Besides, the concentration at half-maximal activity (AC50) under setting [2] was 0.0731 µM [rising, full curve, poor fit].

For the compound `CC(OC(=O)c1ccco1)C(=O)NCc1ccc2c(c1)OCO2` (centres undefined), the cell number change was -5.13%. Moreover, the concentration at half-maximal activity (AC50) under setting [2] is 0.731 µM [rising, single point].

A word on the AC50: it is the concentration giving half of the maximal activity seen. High values mean activity only at high concentration, low ones activity at low concentration.
